The assay deals with Rv3712 (M-PFC bait fusion) (M. tuberculosis) (UniProt I6Y4C7). Nature of the assay: split reporter.

By UniProt entry, the sequences of proteins in these tests, tags left out. Where a name states a change or a piece, a line headed by the entry shows the natural chain unless it says otherwise.
UniProt I6Y4C7: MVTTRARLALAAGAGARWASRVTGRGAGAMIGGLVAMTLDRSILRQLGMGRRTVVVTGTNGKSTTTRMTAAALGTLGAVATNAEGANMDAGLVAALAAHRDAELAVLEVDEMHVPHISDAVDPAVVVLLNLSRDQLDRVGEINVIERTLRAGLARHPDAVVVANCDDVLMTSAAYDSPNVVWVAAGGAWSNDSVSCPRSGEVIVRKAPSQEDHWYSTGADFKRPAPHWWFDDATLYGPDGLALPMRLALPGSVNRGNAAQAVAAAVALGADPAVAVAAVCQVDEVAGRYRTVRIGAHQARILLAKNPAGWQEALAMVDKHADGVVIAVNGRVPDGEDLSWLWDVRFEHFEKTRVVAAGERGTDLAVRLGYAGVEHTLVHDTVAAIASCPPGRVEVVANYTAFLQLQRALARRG
UniProt P9WI81: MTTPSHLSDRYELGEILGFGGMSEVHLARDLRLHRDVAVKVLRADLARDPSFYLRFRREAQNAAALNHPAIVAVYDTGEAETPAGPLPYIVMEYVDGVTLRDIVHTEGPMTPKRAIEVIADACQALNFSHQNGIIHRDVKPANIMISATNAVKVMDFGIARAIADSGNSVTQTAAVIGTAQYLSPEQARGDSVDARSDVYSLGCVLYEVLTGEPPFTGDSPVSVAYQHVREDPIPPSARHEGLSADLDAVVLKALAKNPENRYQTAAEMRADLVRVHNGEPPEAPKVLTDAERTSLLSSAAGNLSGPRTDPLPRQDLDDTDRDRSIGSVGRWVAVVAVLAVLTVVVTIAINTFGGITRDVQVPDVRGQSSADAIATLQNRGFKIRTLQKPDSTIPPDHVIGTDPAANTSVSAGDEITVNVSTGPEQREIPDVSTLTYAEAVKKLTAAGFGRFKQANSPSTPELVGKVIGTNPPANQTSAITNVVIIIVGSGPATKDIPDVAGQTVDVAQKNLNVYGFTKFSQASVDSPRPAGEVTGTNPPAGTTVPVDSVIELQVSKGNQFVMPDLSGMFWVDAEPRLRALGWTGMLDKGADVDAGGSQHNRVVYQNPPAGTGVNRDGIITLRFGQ

No constants are given. Whether binding was seen depends on the method and setting. Binding seen in cells or lysates may run through a third protein. A result given as binding can be weak or reduced; the word gives no strength. Tags and fused reporters may be left off the sequences shown.

Regarding “PknB (M-PFC prey fusion) (from UniProt P9WI81 1-626) (enzyme)”, the binding entry is reported as “binds”.

B1: PknA (M-PFC prey fusion) (enzyme, UniProt P9WI83 1-431)
chain: MSPRVGVTLSGRYRLQRLIATGGMGQVWEAVDNRLGRRVAVKVLKSEFSSDPEFIERFRAEARTTAMLNHPGIASVHDYGESQMNGEGRTAYLVMELVNGEPLNSVLKRTGRLSLRHALDMLEQTGRALQIAHAAGLVHRDVKPGNILITPTGQVKITDFGIAKAVDAAPVTQTGMVMGTAQYIAPEQALGHDASPASDVYSLGVVGYEAVSGKRPFAGDGALTVAMKHIKEPPPPLPPDLPPNVRELIEITLVKNPAMRYRSGGPFADAVAAVRAGRRPPRPSQTPPPGRAAPAAIPSGTTARVAANSAGRTAASRRSRPATGGHRPPRRTFSSGQRALLWAAGVLGALAIIIAVLLVIKAPGDNSPQQAPTPTVTTTGNPPASNTGGTDASPRLNWTERGETRHSGLQSWVVPPTPHSRASLARYEIAQ
Take B1: the binding result is on record as “binds”.

B2: MurC (M-PFC fusion) (enzyme, UniProt P9WJL7 1-494)
chain: MSTEQLPPDLRRVHMVGIGGAGMSGIARILLDRGGLVSGSDAKESRGVHALRARGALIRIGHDASSLDLLPGGATAVVTTHAAIPKTNPELVEARRRGIPVVLRPAVLAKLMAGRTTLMVTGTHGKTTTTSMLIVALQHCGLDPSFAVGGELGEAGTNAHHGSGDCFVAEADESDGSLLQYTPHVAVITNIESDHLDFYGSVEAYVAVFDSFVERIVPGGALVVCTDDPGGAALAQRATELGIRVLRYGSVPGETMAATLVSWQQQGVGAVAHIRLASELATAQGPRVMRLSVPGRHMALNALGALLAAVQIGAPADEVLDGLAGFEGVRRRFELVGTCGVGKASVRVFDDYAHHPTEISATLAAARMVLEQGDGGRCMVVFQPHLYSRTKAFAAEFGRALNAADEVFVLDVYGAREQPLAGVSGASVAEHVTVPMRYVPDFSAVAQQVAAAASPGDVIVTMGAGDVTLLGPEILTALRVRANRSAPGRPGVLG
With B2, the binding entry is “no binding”.

For the origin of these results see article PMC8210147, “Characterization of the MurT/GatD complex in Mycobacterium tuberculosis towards validating a novel anti-tubercular drug target” (JAC-Antimicrobial Resistance, 2021).
